US20060111443A1, “Preventive therapeutic composition for muscular fatigue, pulled muscle and disease attributed thereto” (priority 2002, published 2006)
At least one compound was matched to its structure with a doubt left.

What was measured:
healthy subjects [1] = assay: Muscular fatigue test: pain (VAS score) after exercise stress of 15 km running; assay type: in vivo, human; conditions: tranilast 100 mg 3 times a day, vs control group
healthy subjects [2] = assay: Muscular fatigue test: ability to bend forward in the standing position after exercise stress; assay type: in vivo, human; conditions: 7 days after exercise stress; vs control group
healthy subjects [3] = assay: Analyzing test of blood components (myoglobin, lactic acid, CPK) after exercise stress; assay type: in vivo, human
Procedure: To 20 healthy subjects (14 males and 6 females), was given an exercise stress of 15 km running within a limited time of 2 hours. The 20 subjects who run the whole distance within the limited time were divided into 2 groups by the arrival order, that is, one group consisting of 10 subjects of odd-numbered order of arrival (8 male subjects and 2 female subjects) and the other group consisting of 10 subjects of even-numbered order of arrival (6 male subjects and 4 female subjects). To the group of odd numbers was administered tranilast (hereinafter referred to as Medicine administration group) and to the group of even numbers was not administered (hereinafter referred to as Control group).
To the subjects in Medicine administration group was administered tranilast in a dosage of 100 mg after each meal 3 times a day for a period from the evening meal of the day of the exercise stress to after the lunch of 7 days after the exercise stress, and while to the subjects in Control group was not administered anything.
In each group, bloods were collected at a time of just before, just after, 3 days and 7 days after the exercise stress. And, blood components considered relevant to muscular fatigue and muscular damage (myoglobin, lactic acid and CPK) were analyzed, and relative degrees of changes of blood concentrations which are converted into relative values to the concentrations just after the exercise stress set as 100% were calculated.

[4] = test system: spontaneous hypertension rats (SHR); conditions: Japanese Patent Publication No. Hei 7-277966; cited from earlier work
WHHL rabbits = conditions: Japanese Patent Publication No. Hei 9-227371; cited from earlier work
[5] = test system: human monocyte macrophages; conditions: Jpn J Pharmacol 60, 85-90, 1992; cited from earlier work
[6] = 2 days, 3 days and 7 days after exercise stress
[7] = 3 days and 7 days after exercise stress, vs control group, just after exercise = 100%

COc1ccc(/C=C/C(=O)Nc2ccccc2C(=O)O)cc1OC [tranilast, N-(3,4-dimethoxycinnnamoyl)anthranilic acid]
relative degree of pain on pressing the femur (healthy subjects [1]; 1 day after exercise stress): particularly lower value compared with the control group | relative degree of pain while jogging (healthy subjects [1]; 1 day after exercise stress): particularly lower value compared with the control group | relative degree of pain while walking (healthy subjects [1]; 1 day after exercise stress, pain just after exercise = 100%): particularly lower value compared with the control group | relative degree of pain on pressing the femur (healthy subjects [1]; [6]): lower value compared with the control group | relative degree of pain while jogging (healthy subjects [1]; [6]): lower value compared with the control group | relative degree of pain while walking (healthy subjects [1]; [6]): lower value compared with the control group | relative ability to bend forward in the standing position (healthy subjects [2]): significantly higher ability compared with Control group | blood concentration of CPK compared with the control group (healthy subjects [3]; 3 days after exercise stress): significantly inhibited the increase of the blood concentration of CPK | relative degree of change of blood concentration of lactic acid (healthy subjects [3]; [7]): significantly lower values compared with Control group | relative degree of change of blood concentration of myoglobin (healthy subjects [3]; [7]): significantly lower values compared with Control group | blood concentration of CPK compared with the control group (healthy subjects [3]; 7 days after exercise stress): significantly lower value compared with the control group | effect on sclerosis of heart by inhibition or involution of heart hypertrophy [4]: inhibitory effect on sclerosis of heart | effect on atherogenesis (WHHL rabbits): inhibitory effect on atherogenesis | release of interleukin (IL)-1 beta [5]: inhibitory effect on release | release of prostaglandin (PG) E2 [5]: inhibitory effect on release | release of transforming growth factor (TGF)-beta 1 [5]: inhibitory effect on release
